Assay in all cases: affinity purification with mass spectrometry
The target in one assay is T1, FLAG-mGBP1(K51A) (mouse) (UniProt Q01514).
T1 sequence: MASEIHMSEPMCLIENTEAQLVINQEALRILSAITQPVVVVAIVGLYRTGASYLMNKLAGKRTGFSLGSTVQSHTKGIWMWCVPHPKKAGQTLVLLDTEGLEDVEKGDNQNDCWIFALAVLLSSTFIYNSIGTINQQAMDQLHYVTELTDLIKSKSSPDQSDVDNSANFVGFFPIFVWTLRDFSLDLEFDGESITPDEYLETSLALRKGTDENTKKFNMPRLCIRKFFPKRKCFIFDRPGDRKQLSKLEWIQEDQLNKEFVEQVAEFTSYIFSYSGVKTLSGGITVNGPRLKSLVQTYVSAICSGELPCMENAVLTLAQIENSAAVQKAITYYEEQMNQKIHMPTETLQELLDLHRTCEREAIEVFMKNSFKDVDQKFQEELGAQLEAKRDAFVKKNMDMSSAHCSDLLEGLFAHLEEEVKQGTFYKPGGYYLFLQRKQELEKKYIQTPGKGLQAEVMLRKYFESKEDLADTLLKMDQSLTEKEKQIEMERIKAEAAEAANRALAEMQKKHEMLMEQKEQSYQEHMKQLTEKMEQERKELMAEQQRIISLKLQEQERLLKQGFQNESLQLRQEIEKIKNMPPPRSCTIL

The next assay deals with T2, FLAG-mGBP1(R48A) (mouse) (UniProt Q01514).
T2 sequence: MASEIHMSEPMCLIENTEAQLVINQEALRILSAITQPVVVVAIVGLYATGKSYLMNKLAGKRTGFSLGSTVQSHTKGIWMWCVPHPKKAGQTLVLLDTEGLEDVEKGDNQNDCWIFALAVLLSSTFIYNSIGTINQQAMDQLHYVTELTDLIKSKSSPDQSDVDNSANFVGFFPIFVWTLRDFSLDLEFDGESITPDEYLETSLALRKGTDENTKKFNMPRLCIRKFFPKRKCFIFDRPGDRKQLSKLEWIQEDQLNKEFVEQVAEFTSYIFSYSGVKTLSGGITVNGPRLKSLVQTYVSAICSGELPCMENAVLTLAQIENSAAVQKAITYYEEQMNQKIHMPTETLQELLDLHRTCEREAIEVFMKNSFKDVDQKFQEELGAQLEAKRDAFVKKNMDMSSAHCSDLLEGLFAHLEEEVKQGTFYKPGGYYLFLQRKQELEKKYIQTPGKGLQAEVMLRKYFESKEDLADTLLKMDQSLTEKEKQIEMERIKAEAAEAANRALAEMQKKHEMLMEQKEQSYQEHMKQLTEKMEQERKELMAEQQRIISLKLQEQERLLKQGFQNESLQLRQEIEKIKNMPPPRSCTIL

Assay [1] concerns the target T3, FLAG-tagged mGBP1 wild-type protein (murine guanylate-binding protein 1) (mouse) (UniProt Q01514).
T3 sequence: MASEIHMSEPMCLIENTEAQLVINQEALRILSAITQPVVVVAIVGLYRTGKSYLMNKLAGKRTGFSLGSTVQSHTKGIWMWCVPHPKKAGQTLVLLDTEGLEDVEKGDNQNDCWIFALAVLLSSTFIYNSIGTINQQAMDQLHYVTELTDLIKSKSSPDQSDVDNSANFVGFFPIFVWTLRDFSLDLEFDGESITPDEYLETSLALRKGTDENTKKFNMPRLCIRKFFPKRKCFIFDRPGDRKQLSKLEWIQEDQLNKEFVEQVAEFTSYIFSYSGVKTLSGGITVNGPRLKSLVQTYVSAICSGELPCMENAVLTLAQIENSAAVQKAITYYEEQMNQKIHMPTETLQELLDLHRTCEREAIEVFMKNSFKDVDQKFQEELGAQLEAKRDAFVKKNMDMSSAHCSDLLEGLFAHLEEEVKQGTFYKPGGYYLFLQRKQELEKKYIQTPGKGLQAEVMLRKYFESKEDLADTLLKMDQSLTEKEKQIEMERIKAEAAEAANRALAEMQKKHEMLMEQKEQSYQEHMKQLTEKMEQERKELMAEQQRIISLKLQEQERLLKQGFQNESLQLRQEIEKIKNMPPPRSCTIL

No constants are given. Whether binding was seen depends on the method and setting. In cells and extracts the contact can be indirect. A yes stands for co-enrichment or nearness to the bait. Other partners may have been found. For part of these data: No binding means not detected with the bait. Tags and fused reporters may be left off the sequences shown.

B1: mGBP2 (endogenous, found by MS/MS) (protein, UniProt Q9Z0E6 1-589)
chain: MASEIHMSEPMCLIENTEAQLVINQEALRILSAITQPVVVVAIVGLYRTGKSYLMNKLAGKRTGFSLGSTVQSHTKGIWMWCVPHPKKAGQTLVLLDTEGLEDVEKGDNQNDCWIFALAVLLSSTFIYNSIGTINQQAMDQLHYVTELTDLIKSKSSPDQSGVDDSANFVGFFPTFVWTLRDFSLELEVNGKPVTSDEYLEHSLTLKKGADKKTKSFNEPRLCIRKFFPKRKCFIFDRPAQRKQLSKLETLREEELCGEFVEQVAEFTSYILSYSSVKTLCGGIIVNGPRLKSLVQTYVGAISNGSLPCMESAVLTLAQIENSAAVQKAITHYEEQMNQKIQMPTETLQELLDLHRPIESEAIEVFLKNSFKDVDQKFQTELGNLLVAKRDAFIKKNMDVSSARCSDLLEDIFGPLEEEVKLGTFSKPGGYYLFLQMRQELEKKYNQAPGKGLQAEAMLKNYFDSKADVVETLLQTDQSLTEAAKEVEEERTKAEAAEAANRELEKKQKEFELMMQQKEKSYQEHVKKLTEKMKDEQKQLLAEQENIIAAKLREQEKFLKEGFENESKKLIREIDTLKQNKSSGKCTIL
Turning to B1, the binding result with FLAG-mGBP1(K51A) (mouse) is listed as “no binding”; with FLAG-mGBP1(R48A) (mouse), “binds”; in assay [1], “binds”.

B2: mGBP5 (endogenous, found by MS/MS) (protein, UniProt Q8CFB4 1-590)
chain: MAPEIHMPEPLCLIGSTEGHLVTNQEALKILSAITQPVVVVAIVGLYRTGKSYLMNKLAGKEKGFSVGSTVQSHTKGIWMWCVPHPQKPDHTLVLLDTEGLGDVEKDDKKNDTQIFALAILLSSTFVYNTMNKIDQGAIDLLHNVTELTDLLRTRNSSDSNQTEGEGPADMSFFPDLVWTLRDFFLDLQANGHAITSDEYLENSLKLKQGSDERTQTFNLPRLCIQKFFPVKKCFVFDAPALGSKLSQLPTLSNEELNSDFVQDLSEFCSHIFTQSKTKTLPGGIQVNGPRLESLVLTYVDAINSGALPSIENTVVTLARRENSAAVQKAIGHYDQLMSEKVQLPTETLQELLDLHRTCEREAIEIFRKHSFKDEGEFFQKELESLLSAKQDEICKKNADASAALCSTLLGSIFKPLEQEVAQEFYHKPGGHKLFLQRMEQLKANYRQQPGKGTQAEEVLQTYLNAKETVSRTILQTDQVLTDKEIQSKAEQERAEAARLEAQRLEAIRIQEEQRKAEMERQHQEQLRQIALEKARVAQEQQWILKQRAQEEADRIKAEQEAQLRALQQQLQHMREMNHHRRHHHDCVIS
In the case of B2, the binding entry in the assay with FLAG-mGBP1(K51A) (mouse) is listed as “no binding”; with FLAG-mGBP1(R48A) (mouse), “binds”; in assay [1], “binds”.

B3: mGBP4 (endogenous, found by MS/MS) (protein, UniProt A4UUI3 1-631)
chain: MTQPQMAPICLVENHNEQLSVNQEAIEILDKISQPVVVVAIVGWSHTGKSYLMNCLAGQNHVSGTLPTSQRFPSGLHRAVSDQGHLDVVHAPPHQARALVLLDTEGLGDVEKGDPKNDLWIFALSVLLSSTFVYNSMNTINHQALEQLHYVTELTELIRAKSSPNPHGIKNSTEFVSFFPDFVWTVRDFMLELKLNGEDITSDEYLENALKLIPGNNPRIQASNSARECIRRFFPNRKCFVFEWPTHDIELIKQLETISEDQLDPTFKESAMAFASYIFTYAKIKTLREGIKVTGNGLGTLVTTYVDAINSGAVPCLDDAVTTLAQRENSVAVQKAASHYSEQMAQRLSLPTDTIQELLDVHAACEKEAMAVFMEHSFKDENQQFLKKLVELLREKNGLFLLKNEEASDKYCQEELDRLSKDLMDNISTFSVPGGHRLYMDMREKIEHDYWQVPRKGVKASEVFQNFLQSQAIIESSILQADTALTAGQKAIAEKHTKKEAAEKEQDLLRQKQKEHQEYMEAQEKRNKENLEQLRRKLEQEREQLIKDHNMMLEKLTKEQKTFREEGYKTQAEELRREIHQLGHNIKEMKQNGDSLVESILRSWFSFISPPSESEKAISSVLSLLRKKDRL
As for B3, the binding result is on record as “no binding” with FLAG-mGBP1(K51A) (mouse), “binds” with FLAG-mGBP1(R48A) (mouse) and “binds” in assay [1].

These data come from article PMC3169597.
